4 substances from PMC12026874 (Gels, 2025) can be followed below.

HELM strings list residues between dots; [ac] is acetyl, [am] amide, other brackets name non-standard units.

The series is described as follows: peptide made by a vendor. As to conditions: whole synthesis, HPLC (LC-MS purity chromatograms in Supplementary Materials).
Regarding “PEPTIDE1{[ac].E.M.L.W.L.S.D.G.S.M.G.F.A.E.D.T.D.A.A.F.L.P.G.D.T.I.F.G.R.I}$$$$V2.0”, the “final HPLC purity” value came to 87.68%. The result for “PEPTIDE1{[ac].Q.N.G.E.Y.G.C.V.A.D.T.P.N.L.L.Y.A.F.K.I.L.D.Y.R.Q}$$$$V2.0” reads 88.81%; that for “PEPTIDE1{[ac].R.A.G.Q.P.I.T.A.F.L.V.R.D}$$$$V2.0”, 91.20%; that for “PEPTIDE1{[ac].S.R.P.S.D.P.A.S.A.V.A.G.E.D.Y.T.G.I.S.R.N}$$$$V2.0”, 85.74%.
